The list shows a part of the results. Small differences around the control level are noise.

Sequences of proteins named here, by UniProt entry; tags and fusion partners are left off. A change or cut given only in a name is not applied to a line headed by its entry.
UniProt Q6PKC3: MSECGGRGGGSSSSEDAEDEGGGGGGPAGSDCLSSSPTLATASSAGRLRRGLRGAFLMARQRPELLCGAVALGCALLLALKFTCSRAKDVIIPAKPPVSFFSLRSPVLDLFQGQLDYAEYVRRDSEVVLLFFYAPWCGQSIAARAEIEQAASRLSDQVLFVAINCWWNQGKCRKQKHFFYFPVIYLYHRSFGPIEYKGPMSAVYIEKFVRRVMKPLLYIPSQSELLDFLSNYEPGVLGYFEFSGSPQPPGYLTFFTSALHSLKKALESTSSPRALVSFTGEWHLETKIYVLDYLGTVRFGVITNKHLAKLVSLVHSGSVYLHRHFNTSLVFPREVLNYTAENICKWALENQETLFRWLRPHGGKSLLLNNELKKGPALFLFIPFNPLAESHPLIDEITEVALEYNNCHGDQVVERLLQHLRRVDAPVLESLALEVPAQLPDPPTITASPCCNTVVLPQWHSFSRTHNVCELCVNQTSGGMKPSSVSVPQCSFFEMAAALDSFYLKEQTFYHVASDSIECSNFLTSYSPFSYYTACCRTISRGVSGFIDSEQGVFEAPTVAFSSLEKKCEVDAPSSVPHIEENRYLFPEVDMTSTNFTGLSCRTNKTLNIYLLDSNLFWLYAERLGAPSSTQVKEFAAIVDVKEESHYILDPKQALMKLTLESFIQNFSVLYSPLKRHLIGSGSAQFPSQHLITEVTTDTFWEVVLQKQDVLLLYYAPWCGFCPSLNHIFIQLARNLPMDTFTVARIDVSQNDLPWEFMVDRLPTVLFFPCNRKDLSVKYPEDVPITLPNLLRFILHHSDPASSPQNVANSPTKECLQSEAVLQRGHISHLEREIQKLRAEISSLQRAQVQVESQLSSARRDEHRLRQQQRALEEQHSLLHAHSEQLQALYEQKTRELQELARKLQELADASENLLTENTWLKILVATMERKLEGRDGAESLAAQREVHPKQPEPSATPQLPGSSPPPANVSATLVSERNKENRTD
UniProt Q6IQ21: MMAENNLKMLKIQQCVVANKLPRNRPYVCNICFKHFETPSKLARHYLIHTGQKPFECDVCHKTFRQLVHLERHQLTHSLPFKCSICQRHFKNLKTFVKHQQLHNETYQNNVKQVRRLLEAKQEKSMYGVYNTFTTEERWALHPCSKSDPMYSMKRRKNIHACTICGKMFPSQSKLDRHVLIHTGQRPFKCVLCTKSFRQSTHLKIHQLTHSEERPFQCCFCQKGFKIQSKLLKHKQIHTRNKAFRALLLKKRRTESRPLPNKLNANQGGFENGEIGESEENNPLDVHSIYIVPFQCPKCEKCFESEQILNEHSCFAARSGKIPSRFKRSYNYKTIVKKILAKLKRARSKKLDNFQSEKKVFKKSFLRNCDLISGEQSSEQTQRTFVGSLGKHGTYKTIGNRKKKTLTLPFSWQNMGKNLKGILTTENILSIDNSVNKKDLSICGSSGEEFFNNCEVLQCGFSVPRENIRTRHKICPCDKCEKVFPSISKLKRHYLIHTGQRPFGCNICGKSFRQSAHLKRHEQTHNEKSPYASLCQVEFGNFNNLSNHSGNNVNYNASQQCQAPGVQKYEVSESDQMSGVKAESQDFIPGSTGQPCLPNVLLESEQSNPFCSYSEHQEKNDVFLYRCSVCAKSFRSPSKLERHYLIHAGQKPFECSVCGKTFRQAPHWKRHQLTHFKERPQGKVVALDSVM
UniProt Q6P3X8: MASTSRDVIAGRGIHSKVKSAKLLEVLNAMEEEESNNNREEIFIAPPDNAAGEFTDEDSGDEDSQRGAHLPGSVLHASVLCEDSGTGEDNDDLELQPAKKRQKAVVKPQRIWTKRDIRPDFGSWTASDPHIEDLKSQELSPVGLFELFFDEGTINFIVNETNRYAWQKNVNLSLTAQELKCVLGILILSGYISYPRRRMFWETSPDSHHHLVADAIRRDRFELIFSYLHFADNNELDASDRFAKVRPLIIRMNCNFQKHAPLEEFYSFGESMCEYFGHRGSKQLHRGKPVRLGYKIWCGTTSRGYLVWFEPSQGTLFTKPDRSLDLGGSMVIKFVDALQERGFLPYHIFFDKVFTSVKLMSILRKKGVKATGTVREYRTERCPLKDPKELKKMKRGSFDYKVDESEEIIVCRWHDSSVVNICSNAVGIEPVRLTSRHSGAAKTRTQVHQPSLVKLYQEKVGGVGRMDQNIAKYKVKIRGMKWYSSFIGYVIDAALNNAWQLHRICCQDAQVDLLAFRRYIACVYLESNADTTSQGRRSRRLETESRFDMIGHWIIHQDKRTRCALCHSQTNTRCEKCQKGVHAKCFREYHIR
UniProt Q6IN84: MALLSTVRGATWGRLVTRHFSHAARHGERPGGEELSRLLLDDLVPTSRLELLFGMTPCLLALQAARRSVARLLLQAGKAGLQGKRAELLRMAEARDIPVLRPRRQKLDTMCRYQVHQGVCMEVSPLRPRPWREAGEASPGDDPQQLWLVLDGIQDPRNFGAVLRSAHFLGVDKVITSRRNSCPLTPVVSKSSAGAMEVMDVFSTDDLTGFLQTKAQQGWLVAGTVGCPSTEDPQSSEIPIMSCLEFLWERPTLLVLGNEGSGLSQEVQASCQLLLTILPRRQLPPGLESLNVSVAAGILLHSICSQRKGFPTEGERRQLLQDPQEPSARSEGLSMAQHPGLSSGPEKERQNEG
UniProt Q5XPI4: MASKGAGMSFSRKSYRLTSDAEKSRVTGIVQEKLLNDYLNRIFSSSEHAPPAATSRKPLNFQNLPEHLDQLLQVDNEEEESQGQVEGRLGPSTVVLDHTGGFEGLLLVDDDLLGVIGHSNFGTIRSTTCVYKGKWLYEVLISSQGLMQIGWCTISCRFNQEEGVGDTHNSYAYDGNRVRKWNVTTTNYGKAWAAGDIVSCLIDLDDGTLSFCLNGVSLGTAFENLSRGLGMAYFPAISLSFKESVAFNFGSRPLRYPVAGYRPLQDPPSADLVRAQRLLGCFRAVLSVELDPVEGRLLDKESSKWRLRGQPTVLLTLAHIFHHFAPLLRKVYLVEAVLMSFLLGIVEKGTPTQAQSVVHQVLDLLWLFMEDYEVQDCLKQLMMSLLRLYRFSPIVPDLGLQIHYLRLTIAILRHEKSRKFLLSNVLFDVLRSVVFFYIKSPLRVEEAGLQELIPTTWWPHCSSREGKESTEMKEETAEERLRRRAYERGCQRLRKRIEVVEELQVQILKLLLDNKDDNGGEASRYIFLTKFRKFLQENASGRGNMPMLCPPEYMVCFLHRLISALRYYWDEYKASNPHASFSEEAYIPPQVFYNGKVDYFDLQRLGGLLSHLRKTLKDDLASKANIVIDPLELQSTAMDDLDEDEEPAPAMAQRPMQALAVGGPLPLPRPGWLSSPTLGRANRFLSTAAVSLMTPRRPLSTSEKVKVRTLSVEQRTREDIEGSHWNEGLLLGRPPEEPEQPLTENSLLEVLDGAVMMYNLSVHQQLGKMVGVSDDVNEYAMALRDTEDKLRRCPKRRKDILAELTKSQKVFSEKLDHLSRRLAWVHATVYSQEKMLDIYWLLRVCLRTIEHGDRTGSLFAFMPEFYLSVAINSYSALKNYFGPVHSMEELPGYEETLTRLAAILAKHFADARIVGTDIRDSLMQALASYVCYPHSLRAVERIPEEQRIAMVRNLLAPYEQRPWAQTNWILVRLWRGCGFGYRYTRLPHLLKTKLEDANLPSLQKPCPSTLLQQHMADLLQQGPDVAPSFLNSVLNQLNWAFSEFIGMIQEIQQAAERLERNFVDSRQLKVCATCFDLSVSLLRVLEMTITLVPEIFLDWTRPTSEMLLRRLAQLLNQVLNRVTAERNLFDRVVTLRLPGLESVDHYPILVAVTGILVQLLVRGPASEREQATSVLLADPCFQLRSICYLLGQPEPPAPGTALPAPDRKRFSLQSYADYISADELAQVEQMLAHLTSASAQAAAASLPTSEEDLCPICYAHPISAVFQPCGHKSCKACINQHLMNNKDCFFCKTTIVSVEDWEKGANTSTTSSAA
UniProt Q5XKL5: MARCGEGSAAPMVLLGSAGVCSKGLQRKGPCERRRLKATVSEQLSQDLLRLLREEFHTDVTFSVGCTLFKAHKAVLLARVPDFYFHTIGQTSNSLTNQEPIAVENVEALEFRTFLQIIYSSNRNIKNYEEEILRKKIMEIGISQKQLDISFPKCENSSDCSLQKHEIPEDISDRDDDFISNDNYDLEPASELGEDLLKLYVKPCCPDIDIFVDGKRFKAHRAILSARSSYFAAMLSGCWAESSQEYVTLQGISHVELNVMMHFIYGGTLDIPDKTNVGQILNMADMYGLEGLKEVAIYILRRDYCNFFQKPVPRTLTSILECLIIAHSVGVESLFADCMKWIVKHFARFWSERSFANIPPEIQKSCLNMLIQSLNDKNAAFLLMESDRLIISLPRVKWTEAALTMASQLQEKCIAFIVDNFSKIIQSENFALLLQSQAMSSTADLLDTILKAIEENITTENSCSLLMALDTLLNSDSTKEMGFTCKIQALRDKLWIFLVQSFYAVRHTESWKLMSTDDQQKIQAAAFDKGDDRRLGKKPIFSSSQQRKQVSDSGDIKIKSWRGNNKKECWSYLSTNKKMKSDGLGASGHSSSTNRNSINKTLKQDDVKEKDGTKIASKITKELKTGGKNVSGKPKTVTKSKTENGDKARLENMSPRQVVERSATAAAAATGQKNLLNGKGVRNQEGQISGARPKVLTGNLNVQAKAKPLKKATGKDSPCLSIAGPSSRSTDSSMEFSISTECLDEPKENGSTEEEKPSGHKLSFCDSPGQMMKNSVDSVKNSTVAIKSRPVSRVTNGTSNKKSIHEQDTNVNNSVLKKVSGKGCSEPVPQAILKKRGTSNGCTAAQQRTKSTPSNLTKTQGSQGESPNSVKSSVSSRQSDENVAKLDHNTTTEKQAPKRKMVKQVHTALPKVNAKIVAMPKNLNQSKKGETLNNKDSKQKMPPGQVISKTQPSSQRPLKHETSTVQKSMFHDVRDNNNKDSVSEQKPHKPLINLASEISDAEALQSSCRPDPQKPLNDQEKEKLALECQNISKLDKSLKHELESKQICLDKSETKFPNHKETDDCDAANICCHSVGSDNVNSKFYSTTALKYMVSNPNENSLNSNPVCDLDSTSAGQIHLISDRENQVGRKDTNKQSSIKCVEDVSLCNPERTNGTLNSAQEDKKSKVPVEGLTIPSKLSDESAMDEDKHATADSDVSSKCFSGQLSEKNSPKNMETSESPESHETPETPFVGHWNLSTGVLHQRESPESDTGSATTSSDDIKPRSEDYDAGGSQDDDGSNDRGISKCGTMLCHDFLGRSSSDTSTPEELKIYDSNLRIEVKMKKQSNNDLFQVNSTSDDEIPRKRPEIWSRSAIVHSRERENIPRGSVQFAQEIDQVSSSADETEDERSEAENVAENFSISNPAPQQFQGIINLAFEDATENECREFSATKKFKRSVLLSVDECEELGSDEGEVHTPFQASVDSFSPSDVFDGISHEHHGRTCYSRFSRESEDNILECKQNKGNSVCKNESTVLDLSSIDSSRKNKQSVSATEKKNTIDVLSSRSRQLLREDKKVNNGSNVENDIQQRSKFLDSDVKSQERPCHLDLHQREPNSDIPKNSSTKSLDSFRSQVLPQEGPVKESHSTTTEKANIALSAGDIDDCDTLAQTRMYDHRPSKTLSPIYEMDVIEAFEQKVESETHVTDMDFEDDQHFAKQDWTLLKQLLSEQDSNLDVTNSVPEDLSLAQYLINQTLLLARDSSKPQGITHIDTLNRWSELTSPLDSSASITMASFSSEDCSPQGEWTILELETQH
UniProt Q63HQ0: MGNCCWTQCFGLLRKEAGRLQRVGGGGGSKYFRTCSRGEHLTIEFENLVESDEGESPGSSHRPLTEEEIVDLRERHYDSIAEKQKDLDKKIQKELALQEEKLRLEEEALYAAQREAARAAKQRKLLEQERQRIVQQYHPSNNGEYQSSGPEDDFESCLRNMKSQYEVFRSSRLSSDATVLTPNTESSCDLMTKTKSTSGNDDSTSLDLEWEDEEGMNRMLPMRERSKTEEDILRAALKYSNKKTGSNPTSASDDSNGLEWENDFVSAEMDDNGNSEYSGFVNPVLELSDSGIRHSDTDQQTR
UniProt Q6P2I3: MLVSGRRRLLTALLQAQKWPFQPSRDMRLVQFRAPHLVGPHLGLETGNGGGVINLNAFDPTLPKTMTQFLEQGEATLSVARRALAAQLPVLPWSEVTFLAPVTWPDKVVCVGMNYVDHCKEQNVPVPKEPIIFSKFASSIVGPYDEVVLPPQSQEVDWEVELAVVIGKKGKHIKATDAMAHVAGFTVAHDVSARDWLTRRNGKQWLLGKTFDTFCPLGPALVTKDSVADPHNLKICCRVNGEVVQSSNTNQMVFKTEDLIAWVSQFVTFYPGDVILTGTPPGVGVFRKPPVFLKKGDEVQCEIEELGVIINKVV
UniProt Q5VWZ2: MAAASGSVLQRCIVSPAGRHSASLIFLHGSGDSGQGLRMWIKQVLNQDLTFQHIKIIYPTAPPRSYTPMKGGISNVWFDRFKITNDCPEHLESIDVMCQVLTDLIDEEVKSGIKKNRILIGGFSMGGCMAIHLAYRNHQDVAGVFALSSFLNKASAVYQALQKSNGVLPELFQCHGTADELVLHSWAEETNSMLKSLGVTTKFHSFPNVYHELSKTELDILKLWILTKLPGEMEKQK

Compound in the assay: Cc1nc(Nc2ncc(C(=O)Nc3c(C)cccc3Cl)s2)cc(N2CCN(CCO)CC2)n1 [dasatinib]
Description: log2 fold change of tryptic peptide abundance, ligand vs vehicle (limited proteolysis) (log2 ratio); higher = more trypsin-susceptible (destabilized). The conditions noted are these: ligand concentration: 5 uM; sample: K562 cleared lysate.
Consider “FBXO42 (peptide sequence: RGSLPDQK, peptide start residue: 486) (UniProt Q6P3S6)”, for which the log2 fold change is -0.112. With “C14ORF106 (peptide sequence: SFQSDDSSLR, peptide start residue: 172) (UniProt Q6P0N0)” the figure was 0.662.

As to “TXNDC11 (peptide sequence: ILVATMERK, peptide start residue: 923) (UniProt Q6PKC3)”, the log2 fold change was -0.143.

With “ZNF770 (peptide sequence: GILTTENILSIDNSVNKK, peptide start residue: 421) (UniProt Q6IQ21)”, the log2 fold change was 0.134.

Turning to “UniProt Q6P3X8 (peptide sequence: SLDLGGSMVIK, peptide start residue: 323)”, the log2 fold change turned out to be 0.356. For “INTS3 (peptide sequence: ACQEDDVR, peptide start residue: 730) (UniProt Q68E01)”, the log2 fold change is -0.428. Take “MRM1 (peptide sequence: SEGLSMAQHPGLSSGPEK, peptide start residue: 330) (UniProt Q6IN84)”: the log2 fold change worked out at 0.0905. With “UniProt Q6P280 (peptide sequence: HQRIHTDDK, peptide start residue: 524)” the figure was 0.21. For the target “ATL3 (peptide sequence: DAVVGRPSMDKK, peptide start residue: 528) (UniProt Q6DD88)”, the log2 fold change was 0.0271. Regarding “TAF3 (peptide sequence: VTTHIPQTPVRPETPNR, peptide start residue: 326) (UniProt Q5VWG9)”, the log2 fold change came out at 0.25. With “DENND5A (peptide sequence: FVTAINNTPR, peptide start residue: 1201) (UniProt Q6IQ26)” the figure was -0.224; with “CC2D1A (peptide sequence: SARPLHSLSVLAFDQER, peptide start residue: 841) (UniProt Q6P1N0)”, -0.252.

Take “RNF123 (peptide sequence: DILAELTK, peptide start residue: 799) (UniProt Q5XPI4)”: the log2 fold change stood at 0.242. For “RSBN1L (peptide sequence: LDHVQFAEFK, peptide start residue: 790) (UniProt Q6PCB5)” the value was -0.433. For “UniProt Q6NSW5 (peptide sequence: IEAVQEFTR, peptide start residue: 190)” the value was 0.0422; for “UniProt Q5XKL5 (peptide sequence: CGTMLCHDFLGR, peptide start residue: 1288)”, 0.977. Take “ZFAND6 (peptide sequence: ENPVVVGEK, peptide start residue: 196) (UniProt Q6FIF0)”: the log2 fold change was found to be 0.0685. Take “UniProt Q5W0Q7 (peptide sequence: SVEIEKDAQLK, peptide start residue: 693)”: the log2 fold change was -0.385. With “UniProt Q63HQ0 (peptide sequence: SQYEVFR, peptide start residue: 163)” the figure was -0.132; with “FAHD2B (peptide sequence: EQNVPVPKEPIIFSK, peptide start residue: 121) (UniProt Q6P2I3)”, -0.152; with “ACAD10 (peptide sequence: AAALDIAMIK, peptide start residue: 988) (UniProt Q6JQN1)”, -0.236. With “CCDC137 (peptide sequence: QQVQPLGK, peptide start residue: 27) (UniProt Q6PK04)” the figure was -0.138. On to “LYPLAL1 (peptide sequence: IIYPTAPPR, peptide start residue: 56) (UniProt Q5VWZ2)”, for which the log2 fold change was 0.0977. With “SMYD5 (peptide sequence: LTGKPGQVLPHPELCTVR, peptide start residue: 87) (UniProt Q6GMV2)”, the log2 fold change was 0.181. With “PKN3 (peptide sequence: TTNWQALLAR, peptide start residue: 820) (UniProt Q6P5Z2)” the figure was 0.198. For the target “KLC3 (peptide sequence: YEVAVPLCR, peptide start residue: 223) (UniProt Q6P597)”, the log2 fold change was -0.409.

In the case of “TTC33 (peptide sequence: KEILLEGCAEK, peptide start residue: 48) (UniProt Q6PID6)”, the log2 fold change was -1.19.

Values taken from the supplement of paper PMC12819154, “High-throughput peptide-centric local stability assay extends protein–ligand identification to membrane proteins, tissues and bacteria” (Nature Structural & Molecular Biology, 2025).
